Reference: US20060121489
For at least one entry, the source does not settle the construct or the ends of the probe. At least one result comes from cells or an extract, where the contact may be indirect.

Legend:
[1] = tested on: NF-kB in 70Z/3 pre-B cell nuclear extract (p50- or p105-containing complex); experiment: EMSA; conditions: 6 phosphorodithioate (S2) linkages: 5'-CCAGGAGATS2TS2CCAC-3' / 3'-GGS2TCCS2TCS2TAAGGS2TG-5'; single complex; anti-p50 supershift; protein in an extract
[2] = tested on: AP-1 family proteins in 70Z/3 nuclear extract (JunD, CREB, c-Jun, possibly ATF2); experiment: EMSA; conditions: 6 phosphorodithioate (S2) linkages: 5'-CCAGTS2GACTS2CAGTS2G-3' / 3'-GGS2TCACS2TGAGS2TCAC-5'; supershift: JunD, CREB, c-Jun, possibly ATF2; protein in an …

Sequence | binding result [1] | binding result [2]
CCAGGAGATTCCAC (double strand) [XBY-6] | binds | 
CCAGTGACTCAGTG (double strand) [XBY-S2] |  | binds
